Assay results taken from the supplement of paper PMC12067093, “Discovery and optimisation of a covalent ligand for TRIM25 and its application to targeted protein ubiquitination” (Chemical Science, 2025).
The other results are listed elsewhere or left out.

Amino acid sequences for entries named in this document (tags omitted). A change or cut given only in a name is not applied to a line headed by its entry.
UniProt Q7Z3K3: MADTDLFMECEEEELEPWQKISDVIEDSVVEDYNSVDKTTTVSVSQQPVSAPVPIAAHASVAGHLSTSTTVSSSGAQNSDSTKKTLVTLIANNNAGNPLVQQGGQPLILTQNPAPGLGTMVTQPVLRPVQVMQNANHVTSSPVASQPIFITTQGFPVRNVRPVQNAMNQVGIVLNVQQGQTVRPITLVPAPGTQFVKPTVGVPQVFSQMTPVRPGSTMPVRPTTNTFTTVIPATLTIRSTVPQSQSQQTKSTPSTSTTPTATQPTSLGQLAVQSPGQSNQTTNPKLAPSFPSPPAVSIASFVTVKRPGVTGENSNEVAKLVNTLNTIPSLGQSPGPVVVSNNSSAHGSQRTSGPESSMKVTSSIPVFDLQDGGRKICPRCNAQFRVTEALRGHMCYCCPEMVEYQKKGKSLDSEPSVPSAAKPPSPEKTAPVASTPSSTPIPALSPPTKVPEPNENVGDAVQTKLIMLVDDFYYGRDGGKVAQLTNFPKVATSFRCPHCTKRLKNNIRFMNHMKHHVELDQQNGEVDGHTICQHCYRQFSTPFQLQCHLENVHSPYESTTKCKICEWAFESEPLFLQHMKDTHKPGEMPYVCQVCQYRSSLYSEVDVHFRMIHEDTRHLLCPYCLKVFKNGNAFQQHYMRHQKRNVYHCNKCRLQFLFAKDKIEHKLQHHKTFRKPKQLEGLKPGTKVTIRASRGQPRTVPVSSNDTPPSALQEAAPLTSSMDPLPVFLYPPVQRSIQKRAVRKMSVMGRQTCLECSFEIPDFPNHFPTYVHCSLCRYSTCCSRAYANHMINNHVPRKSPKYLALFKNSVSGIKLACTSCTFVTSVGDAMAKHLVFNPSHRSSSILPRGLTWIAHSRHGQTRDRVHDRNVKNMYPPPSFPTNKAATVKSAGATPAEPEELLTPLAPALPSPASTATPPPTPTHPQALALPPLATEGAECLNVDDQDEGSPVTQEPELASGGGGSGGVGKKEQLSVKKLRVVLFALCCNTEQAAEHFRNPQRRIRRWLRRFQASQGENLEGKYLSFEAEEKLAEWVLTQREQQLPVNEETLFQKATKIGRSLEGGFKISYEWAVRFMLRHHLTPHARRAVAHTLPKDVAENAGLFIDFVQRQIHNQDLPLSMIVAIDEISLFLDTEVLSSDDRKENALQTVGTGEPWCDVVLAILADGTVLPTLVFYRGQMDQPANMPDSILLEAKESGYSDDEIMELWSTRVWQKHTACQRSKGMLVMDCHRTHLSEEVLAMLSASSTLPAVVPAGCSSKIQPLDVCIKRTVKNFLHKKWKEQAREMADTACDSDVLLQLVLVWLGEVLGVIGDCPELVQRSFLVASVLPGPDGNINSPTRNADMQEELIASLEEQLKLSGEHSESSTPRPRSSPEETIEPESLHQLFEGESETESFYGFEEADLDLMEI
UniProt P16435: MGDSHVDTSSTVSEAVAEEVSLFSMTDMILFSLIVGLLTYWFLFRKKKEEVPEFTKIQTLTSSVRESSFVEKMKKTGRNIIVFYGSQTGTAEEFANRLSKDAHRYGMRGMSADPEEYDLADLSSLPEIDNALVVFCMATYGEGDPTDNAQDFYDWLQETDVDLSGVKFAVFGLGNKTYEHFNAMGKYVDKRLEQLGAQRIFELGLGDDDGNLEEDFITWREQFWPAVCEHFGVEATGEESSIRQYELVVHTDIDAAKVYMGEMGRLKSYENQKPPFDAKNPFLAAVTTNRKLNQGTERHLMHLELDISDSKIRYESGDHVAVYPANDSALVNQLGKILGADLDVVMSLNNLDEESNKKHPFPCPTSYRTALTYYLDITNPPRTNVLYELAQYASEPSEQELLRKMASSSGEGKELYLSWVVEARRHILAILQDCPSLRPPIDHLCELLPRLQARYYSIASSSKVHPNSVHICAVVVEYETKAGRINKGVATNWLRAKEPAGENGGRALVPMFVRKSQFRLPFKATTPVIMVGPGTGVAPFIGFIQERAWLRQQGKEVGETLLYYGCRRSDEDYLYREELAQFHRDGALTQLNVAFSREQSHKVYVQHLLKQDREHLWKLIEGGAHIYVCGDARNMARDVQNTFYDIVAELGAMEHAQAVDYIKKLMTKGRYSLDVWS
UniProt P62937, whole entry, looked up: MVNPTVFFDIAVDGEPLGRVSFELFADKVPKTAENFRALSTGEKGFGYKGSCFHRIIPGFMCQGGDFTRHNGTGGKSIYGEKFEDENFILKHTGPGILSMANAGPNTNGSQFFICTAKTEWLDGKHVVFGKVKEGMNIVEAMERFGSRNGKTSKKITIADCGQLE
UniProt O95602, whole entry, looked up: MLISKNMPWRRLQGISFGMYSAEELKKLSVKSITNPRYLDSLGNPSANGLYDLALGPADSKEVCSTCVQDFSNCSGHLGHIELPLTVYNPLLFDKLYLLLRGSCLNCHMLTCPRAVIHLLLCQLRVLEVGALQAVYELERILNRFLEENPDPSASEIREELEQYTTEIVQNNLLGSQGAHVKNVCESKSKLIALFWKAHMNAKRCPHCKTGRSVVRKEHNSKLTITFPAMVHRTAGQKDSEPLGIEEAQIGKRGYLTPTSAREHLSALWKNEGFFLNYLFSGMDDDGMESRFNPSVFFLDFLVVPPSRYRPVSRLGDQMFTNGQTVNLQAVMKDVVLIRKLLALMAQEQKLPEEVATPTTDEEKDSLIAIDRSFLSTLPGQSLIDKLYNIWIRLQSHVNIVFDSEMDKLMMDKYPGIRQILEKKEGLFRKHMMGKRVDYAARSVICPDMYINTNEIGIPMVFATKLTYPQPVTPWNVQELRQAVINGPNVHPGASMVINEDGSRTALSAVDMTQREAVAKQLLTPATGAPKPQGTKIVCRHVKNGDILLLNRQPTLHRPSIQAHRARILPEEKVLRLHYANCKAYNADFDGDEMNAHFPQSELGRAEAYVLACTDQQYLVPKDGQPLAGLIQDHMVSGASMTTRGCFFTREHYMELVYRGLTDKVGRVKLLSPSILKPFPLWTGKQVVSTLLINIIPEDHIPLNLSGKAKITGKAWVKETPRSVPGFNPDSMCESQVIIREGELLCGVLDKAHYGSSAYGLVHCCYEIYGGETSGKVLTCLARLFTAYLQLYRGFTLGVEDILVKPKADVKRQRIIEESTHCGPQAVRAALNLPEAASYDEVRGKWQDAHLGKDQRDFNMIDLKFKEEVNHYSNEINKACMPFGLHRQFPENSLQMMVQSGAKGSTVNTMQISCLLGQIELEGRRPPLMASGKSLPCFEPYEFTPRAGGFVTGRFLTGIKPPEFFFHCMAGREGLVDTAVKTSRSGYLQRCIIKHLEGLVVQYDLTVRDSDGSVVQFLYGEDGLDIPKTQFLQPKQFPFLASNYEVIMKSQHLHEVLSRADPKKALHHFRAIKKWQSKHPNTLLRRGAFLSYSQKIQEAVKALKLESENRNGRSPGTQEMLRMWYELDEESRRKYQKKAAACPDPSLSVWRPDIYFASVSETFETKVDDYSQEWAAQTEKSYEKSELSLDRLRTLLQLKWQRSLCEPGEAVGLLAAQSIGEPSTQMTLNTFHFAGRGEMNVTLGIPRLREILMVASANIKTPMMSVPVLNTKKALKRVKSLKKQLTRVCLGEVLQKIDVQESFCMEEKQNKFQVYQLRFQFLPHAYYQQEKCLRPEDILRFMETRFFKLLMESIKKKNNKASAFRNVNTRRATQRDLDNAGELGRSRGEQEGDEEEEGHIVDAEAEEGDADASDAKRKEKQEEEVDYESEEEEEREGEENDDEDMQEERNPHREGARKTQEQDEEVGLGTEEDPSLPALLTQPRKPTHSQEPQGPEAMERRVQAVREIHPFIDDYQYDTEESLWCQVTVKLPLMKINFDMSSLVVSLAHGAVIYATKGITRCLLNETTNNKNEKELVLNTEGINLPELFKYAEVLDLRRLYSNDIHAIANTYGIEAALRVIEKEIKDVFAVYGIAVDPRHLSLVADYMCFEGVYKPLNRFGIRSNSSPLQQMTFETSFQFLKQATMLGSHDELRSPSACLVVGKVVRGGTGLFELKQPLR
UniProt P54098: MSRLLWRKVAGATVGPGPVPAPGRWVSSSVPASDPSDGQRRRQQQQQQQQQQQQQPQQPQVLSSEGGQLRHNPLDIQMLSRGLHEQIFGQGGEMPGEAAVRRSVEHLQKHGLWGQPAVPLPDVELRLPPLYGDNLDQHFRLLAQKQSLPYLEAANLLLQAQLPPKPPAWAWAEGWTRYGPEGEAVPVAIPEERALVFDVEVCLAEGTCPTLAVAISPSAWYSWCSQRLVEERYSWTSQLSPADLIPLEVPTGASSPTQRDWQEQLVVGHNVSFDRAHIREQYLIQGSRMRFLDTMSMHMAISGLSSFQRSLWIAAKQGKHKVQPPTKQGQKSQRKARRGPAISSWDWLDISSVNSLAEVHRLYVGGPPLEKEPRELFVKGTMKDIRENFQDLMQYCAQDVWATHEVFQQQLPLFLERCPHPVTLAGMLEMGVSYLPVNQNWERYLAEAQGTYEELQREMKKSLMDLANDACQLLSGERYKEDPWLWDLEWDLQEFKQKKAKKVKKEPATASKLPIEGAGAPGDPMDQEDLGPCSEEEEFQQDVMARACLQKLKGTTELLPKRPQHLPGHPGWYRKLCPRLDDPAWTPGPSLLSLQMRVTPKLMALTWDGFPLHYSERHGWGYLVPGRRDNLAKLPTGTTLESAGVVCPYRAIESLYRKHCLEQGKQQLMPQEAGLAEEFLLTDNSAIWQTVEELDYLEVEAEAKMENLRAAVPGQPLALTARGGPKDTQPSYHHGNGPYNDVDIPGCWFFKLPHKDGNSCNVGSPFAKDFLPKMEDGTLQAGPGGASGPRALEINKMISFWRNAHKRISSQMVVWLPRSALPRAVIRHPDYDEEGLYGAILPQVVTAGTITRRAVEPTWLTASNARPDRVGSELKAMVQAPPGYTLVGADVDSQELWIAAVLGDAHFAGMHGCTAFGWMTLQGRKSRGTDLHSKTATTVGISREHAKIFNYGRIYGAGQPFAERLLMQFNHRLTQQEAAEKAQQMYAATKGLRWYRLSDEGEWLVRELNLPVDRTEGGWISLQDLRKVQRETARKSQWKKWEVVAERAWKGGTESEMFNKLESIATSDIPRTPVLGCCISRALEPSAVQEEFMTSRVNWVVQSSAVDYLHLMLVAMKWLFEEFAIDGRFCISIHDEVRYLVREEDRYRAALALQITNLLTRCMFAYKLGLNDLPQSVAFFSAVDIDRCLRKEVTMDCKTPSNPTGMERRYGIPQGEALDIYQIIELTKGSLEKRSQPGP
UniProt P30405: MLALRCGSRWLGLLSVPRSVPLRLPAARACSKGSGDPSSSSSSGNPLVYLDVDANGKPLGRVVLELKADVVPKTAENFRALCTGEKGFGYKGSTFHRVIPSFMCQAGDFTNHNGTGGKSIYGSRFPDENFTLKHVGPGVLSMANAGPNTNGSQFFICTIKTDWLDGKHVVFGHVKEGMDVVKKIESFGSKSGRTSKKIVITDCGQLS
UniProt Q15181: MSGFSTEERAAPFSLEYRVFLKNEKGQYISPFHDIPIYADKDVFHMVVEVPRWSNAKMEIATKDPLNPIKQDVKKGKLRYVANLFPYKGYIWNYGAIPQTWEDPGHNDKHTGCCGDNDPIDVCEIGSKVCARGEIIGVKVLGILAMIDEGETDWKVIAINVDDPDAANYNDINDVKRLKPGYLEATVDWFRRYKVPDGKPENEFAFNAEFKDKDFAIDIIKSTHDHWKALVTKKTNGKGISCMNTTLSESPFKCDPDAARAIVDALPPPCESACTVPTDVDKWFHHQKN
UniProt Q9BY77: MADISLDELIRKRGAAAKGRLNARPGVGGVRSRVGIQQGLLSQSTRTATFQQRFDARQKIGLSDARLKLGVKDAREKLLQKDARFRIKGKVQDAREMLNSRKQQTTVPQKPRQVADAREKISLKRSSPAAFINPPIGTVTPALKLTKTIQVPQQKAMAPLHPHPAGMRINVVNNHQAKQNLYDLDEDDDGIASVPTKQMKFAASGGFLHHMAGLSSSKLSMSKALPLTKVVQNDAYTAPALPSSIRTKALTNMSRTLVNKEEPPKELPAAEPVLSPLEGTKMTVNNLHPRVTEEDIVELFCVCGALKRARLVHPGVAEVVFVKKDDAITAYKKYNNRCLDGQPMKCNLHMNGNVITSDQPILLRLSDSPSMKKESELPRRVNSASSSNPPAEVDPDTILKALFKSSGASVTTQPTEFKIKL
UniProt Q15054: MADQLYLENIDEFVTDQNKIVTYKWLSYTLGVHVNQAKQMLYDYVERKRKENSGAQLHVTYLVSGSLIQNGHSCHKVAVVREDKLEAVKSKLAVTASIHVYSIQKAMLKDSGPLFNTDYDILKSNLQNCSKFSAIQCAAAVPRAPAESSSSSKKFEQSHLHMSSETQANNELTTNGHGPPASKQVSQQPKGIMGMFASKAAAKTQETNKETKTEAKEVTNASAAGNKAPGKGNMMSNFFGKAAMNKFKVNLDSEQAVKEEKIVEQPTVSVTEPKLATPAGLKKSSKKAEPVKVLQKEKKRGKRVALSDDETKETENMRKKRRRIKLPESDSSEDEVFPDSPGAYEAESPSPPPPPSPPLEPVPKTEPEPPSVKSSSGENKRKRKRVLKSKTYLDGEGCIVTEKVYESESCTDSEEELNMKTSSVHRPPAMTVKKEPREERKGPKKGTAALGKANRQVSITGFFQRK

What follows are targets tested with Cc1cc(ccc1-c1ccccc1)C(=O)N1CCCN(CC1)C(=O)CCl [compound 10] (assay: probe-labelled cysteine peptide fold change vs DMSO (competition) (log2 fold change); higher = less target engagement (more negative = stronger competition)). Conditions: 10 µM; THP-1; incubation time: 4 h.
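Also: competitive profiling in live THP-1 cells: cysteine peptides tagged with an iodoacetamide desthiobiotin (IA-DTB) probe, intensity after compound treatment relative to DMSO-treated cells.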

Target	probe-labelled cysteine peptide fold change
POGZ_Q7Z3K3_1219_HTACQR (UniProt Q7Z3K3)	-0.0145
POLR3A_O14802_742_LQQQPGCTAEETLEALILK (UniProt O14802)	-0.214
POR_P16435_629_LIEGGAHIYVCGDAR (UniProt P16435)	0.0472
PPIA_P62937_52_GFGYKGSCFHR (UniProt P62937)	0.0838
POLR1A_O95602_914_GSTVNTMQISCLLGQIELEGR (UniProt O95602)	-0.0412
POLG_P54098_760_DGNSCNVGSPFAK (UniProt P54098)	-0.0957
PPIF_P30405_203_KIVITDCGQLS (UniProt P30405)	-0.114
PPA1_Q15181_114_HTGCCGDNDPIDVCEIGSK (UniProt Q15181)	0.105
POLDIP3_Q9BY77_301_VTEEDIVELFCVCGALK (UniProt Q9BY77)	0.0886
PPID_Q08752_282_LQPIALSCVLNIGACK (UniProt Q08752)	0.305
PPIF_P30405_104_VIPSFMCQAGDFTNHNGTGGK (UniProt P30405)	0.00215
POLDIP3_Q9BY77_301_VTEEDIVELFCVCGALKR (UniProt Q9BY77)	0.0108
POLD3_Q15054_137_FSAIQCAAAVPR (UniProt Q15054)	-0.187
POLR2A_P24928_233_ISDEECFVLGMEPR (UniProt P24928)	0.078
POLR2B_P30876_1137_THTYECR (UniProt P30876)	-0.225
POLG_P54098_647_LPTGTTLESAGVVCPYR (UniProt P54098)	-0.484

Reformatted: results already given.
Target | probe-labelled cysteine peptide fold change
POR_P16435_629_LIEGGAHIYVCGDAR (UniProt P16435) | 0.0472
POLG_P54098_760_DGNSCNVGSPFAK (UniProt P54098) | -0.0957
PPA1_Q15181_114_HTGCCGDNDPIDVCEIGSK (UniProt Q15181) | 0.105
POLG_P54098_647_LPTGTTLESAGVVCPYR (UniProt P54098) | -0.484
